We go through 3 molecules from paper PMC10941358.

The target of experiment [1] is BK-SSF (pGBKT7-SSF) (Arabidopsis thaliana). The experiment can be described thus: two-hybrid; yeast strain AH109; pGBKT7-SSF (BD) with pGADT7-SKB1 (AD); interaction selected on SD/-Leu/-Trp/-His/-Ade; up to 4 d at 30 C.
Experiment [2] has as its target cLUC-SSF (772-cLUC-SSF) (Arabidopsis thaliana). The experiment can be described thus: split reporter; luciferase complementation (LCI) in N. benthamiana leaves, Agrobacterium GV3101 infiltration; read 48 h after injection.
Experiment [3] has as its target SSF-nYFP (pSPYNE-SSF-YFP) (Arabidopsis thaliana). As to the kind of experiment: split reporter; BiFC with split YFP in A. thaliana protoplasts; YFP fluorescence by confocal microscopy 2 d after transformation.

Results are given in words; binding and its absence hold for the method and conditions named. A result given as binding can be weak or reduced; the word gives no strength. Tags and fused reporters may be left off the sequences shown. For part of these data: Binding seen in cells or lysates may run through a third protein.

B1: AD-SKB1 (pGADT7-SKB1) (protein, UniProt Q8GWT4 1-642)
chain: MPLGERGGWERTESRYCGVETDFSNDVTHLLNFNISTGGFDYVLAPLVDPSYRPSLVEGNGVDTQVLPVCGSDLVLSPSQWSSHVVGKISSWIDLDSEDEVLRMDSETTLKQEIAWATHLSLQACLLPTPKGKSCANYARCVNQILQGLTTLQLWLRVPLVKSEGDSMDDTSEGLNDSWELWNSFRLLCEHDSKLSVALDVLSTLPSETSLGRWMGESVRAAILSTDAFLTNARGYPCLSKRHQKLIAGFFDHAAQVVICGKPVHNLQKPLDSSSEGTEKNPLRIYLDYVAYLFQKMESLSEQERIELGYRDFLQAPLQPLMDNLEAQTYETFERDSVKYIQYQRAVEKALVDRVPDEKASELTTVLMVVGAGRGPLVRASLQAAEETDRKLKVYAVEKNPNAVVTLHNLVKMEGWEDVVTIISCDMRFWNAPEQADILVSELLGSFGDNELSPECLDGAQRFLKPDGISIPSSYTSFIQPITASKLYNDVKAHKDLAHFETAYVVKLHSVAKLAPSQSVFTFTHPNFSTKVNNQRYKKLQFSLPSDAGSALVHGFAGYFDSVLYKDVHLGIEPTTATPNMFSWFPIFFPLRKPVEVHPDTPLEVHFWRCCGSSKVWYEWSVSSPTPSPMHNTNGRSYWVGL
Consider B1, for which the binding result in experiment [1] is “binds”.

B2: SKB1-nLUC (771-nLUC-SKB1) (protein, UniProt Q8GWT4 1-642)
chain: MPLGERGGWERTESRYCGVETDFSNDVTHLLNFNISTGGFDYVLAPLVDPSYRPSLVEGNGVDTQVLPVCGSDLVLSPSQWSSHVVGKISSWIDLDSEDEVLRMDSETTLKQEIAWATHLSLQACLLPTPKGKSCANYARCVNQILQGLTTLQLWLRVPLVKSEGDSMDDTSEGLNDSWELWNSFRLLCEHDSKLSVALDVLSTLPSETSLGRWMGESVRAAILSTDAFLTNARGYPCLSKRHQKLIAGFFDHAAQVVICGKPVHNLQKPLDSSSEGTEKNPLRIYLDYVAYLFQKMESLSEQERIELGYRDFLQAPLQPLMDNLEAQTYETFERDSVKYIQYQRAVEKALVDRVPDEKASELTTVLMVVGAGRGPLVRASLQAAEETDRKLKVYAVEKNPNAVVTLHNLVKMEGWEDVVTIISCDMRFWNAPEQADILVSELLGSFGDNELSPECLDGAQRFLKPDGISIPSSYTSFIQPITASKLYNDVKAHKDLAHFETAYVVKLHSVAKLAPSQSVFTFTHPNFSTKVNNQRYKKLQFSLPSDAGSALVHGFAGYFDSVLYKDVHLGIEPTTATPNMFSWFPIFFPLRKPVEVHPDTPLEVHFWRCCGSSKVWYEWSVSSPTPSPMHNTNGRSYWVGL
For the molecule B2, the binding result in experiment [2] is recorded as “binds”.

B3: SKB1-cYFP (pSPYCE-SKB1-YFP) (protein, UniProt Q8GWT4 1-642)
chain: MPLGERGGWERTESRYCGVETDFSNDVTHLLNFNISTGGFDYVLAPLVDPSYRPSLVEGNGVDTQVLPVCGSDLVLSPSQWSSHVVGKISSWIDLDSEDEVLRMDSETTLKQEIAWATHLSLQACLLPTPKGKSCANYARCVNQILQGLTTLQLWLRVPLVKSEGDSMDDTSEGLNDSWELWNSFRLLCEHDSKLSVALDVLSTLPSETSLGRWMGESVRAAILSTDAFLTNARGYPCLSKRHQKLIAGFFDHAAQVVICGKPVHNLQKPLDSSSEGTEKNPLRIYLDYVAYLFQKMESLSEQERIELGYRDFLQAPLQPLMDNLEAQTYETFERDSVKYIQYQRAVEKALVDRVPDEKASELTTVLMVVGAGRGPLVRASLQAAEETDRKLKVYAVEKNPNAVVTLHNLVKMEGWEDVVTIISCDMRFWNAPEQADILVSELLGSFGDNELSPECLDGAQRFLKPDGISIPSSYTSFIQPITASKLYNDVKAHKDLAHFETAYVVKLHSVAKLAPSQSVFTFTHPNFSTKVNNQRYKKLQFSLPSDAGSALVHGFAGYFDSVLYKDVHLGIEPTTATPNMFSWFPIFFPLRKPVEVHPDTPLEVHFWRCCGSSKVWYEWSVSSPTPSPMHNTNGRSYWVGL
Take B3: the binding entry in experiment [3] is “binds”.
